In this assay the target is Hrd1 (Arabidopsis) (Arabidopsis). The assay is described as follows: affinity purification with mass spectrometry.

Results are given in words; binding and its absence hold for the method and conditions named. In cells and extracts the contact can be indirect. A yes stands for co-enrichment or nearness to the bait. Other partners may have been found.

B1: TIN1 found in the Hrd1 immunoprecipitate (protein, UniProt Q84JN2 26-424)
chain: LISSPDANPPYPKAISDLKESIVKGLGFQSEEVKVSGFDIRDALVGHSVSYEFDLEIDNKVLPFKLLEDVNRWEYVDLPIFQVEQPSENGLVPMRNKKTSSDDVLPVLAPFQLSGPMELWIQDANNMRLSLPYDVDAGVLKKVILADGAVVTVKGARSVSLRHPIDLPLPLNQSSNEFASGLLSLAEQLRRASTDQESPVLSLRIVGPTSLASTSQSPDNKLKLKRLAPGLVELSSMSKDKRSLSTIGANAMTTVLTPREFTTMWPITSINGSNANLLGFEKLLTSVLGPKAQEKGSFKVLKAKVAAQTFMKIGFGIEKKLKEADVEGLSFPEWRTKPETMRMHFEVLAKVDGENVIPENVMRVDPIPLEDTIAQNVITGNVTMSKLPIIESPPSPFTL
For B1, the binding entry is reported as “binds”.

The values above are taken from publication doi:10.1101/2022.06.06.495033.
